Amino acid sequences for entries named in this document (tags omitted). Residues count along the entry.
UniProt Q07021, residues 74-282: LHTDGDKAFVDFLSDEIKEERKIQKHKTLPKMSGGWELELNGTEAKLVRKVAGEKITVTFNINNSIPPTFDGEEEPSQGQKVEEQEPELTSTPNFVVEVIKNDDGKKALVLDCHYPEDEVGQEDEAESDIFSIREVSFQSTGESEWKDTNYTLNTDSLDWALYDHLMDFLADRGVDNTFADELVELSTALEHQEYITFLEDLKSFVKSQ
UniProt Q5SSJ5: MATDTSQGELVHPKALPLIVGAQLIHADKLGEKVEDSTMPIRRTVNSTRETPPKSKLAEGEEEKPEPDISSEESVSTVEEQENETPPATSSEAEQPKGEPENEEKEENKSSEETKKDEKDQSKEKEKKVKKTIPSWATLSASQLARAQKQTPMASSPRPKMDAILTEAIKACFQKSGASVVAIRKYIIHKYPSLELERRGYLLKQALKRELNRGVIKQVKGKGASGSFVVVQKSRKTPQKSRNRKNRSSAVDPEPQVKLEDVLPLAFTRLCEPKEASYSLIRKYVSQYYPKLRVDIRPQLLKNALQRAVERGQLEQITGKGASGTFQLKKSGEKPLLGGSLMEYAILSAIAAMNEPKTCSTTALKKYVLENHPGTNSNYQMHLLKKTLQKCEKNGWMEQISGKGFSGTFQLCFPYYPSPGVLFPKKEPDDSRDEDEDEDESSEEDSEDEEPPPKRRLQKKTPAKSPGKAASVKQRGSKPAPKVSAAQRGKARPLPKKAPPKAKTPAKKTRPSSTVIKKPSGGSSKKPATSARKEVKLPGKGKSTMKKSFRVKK
UniProt Q07954, residues 20-4544: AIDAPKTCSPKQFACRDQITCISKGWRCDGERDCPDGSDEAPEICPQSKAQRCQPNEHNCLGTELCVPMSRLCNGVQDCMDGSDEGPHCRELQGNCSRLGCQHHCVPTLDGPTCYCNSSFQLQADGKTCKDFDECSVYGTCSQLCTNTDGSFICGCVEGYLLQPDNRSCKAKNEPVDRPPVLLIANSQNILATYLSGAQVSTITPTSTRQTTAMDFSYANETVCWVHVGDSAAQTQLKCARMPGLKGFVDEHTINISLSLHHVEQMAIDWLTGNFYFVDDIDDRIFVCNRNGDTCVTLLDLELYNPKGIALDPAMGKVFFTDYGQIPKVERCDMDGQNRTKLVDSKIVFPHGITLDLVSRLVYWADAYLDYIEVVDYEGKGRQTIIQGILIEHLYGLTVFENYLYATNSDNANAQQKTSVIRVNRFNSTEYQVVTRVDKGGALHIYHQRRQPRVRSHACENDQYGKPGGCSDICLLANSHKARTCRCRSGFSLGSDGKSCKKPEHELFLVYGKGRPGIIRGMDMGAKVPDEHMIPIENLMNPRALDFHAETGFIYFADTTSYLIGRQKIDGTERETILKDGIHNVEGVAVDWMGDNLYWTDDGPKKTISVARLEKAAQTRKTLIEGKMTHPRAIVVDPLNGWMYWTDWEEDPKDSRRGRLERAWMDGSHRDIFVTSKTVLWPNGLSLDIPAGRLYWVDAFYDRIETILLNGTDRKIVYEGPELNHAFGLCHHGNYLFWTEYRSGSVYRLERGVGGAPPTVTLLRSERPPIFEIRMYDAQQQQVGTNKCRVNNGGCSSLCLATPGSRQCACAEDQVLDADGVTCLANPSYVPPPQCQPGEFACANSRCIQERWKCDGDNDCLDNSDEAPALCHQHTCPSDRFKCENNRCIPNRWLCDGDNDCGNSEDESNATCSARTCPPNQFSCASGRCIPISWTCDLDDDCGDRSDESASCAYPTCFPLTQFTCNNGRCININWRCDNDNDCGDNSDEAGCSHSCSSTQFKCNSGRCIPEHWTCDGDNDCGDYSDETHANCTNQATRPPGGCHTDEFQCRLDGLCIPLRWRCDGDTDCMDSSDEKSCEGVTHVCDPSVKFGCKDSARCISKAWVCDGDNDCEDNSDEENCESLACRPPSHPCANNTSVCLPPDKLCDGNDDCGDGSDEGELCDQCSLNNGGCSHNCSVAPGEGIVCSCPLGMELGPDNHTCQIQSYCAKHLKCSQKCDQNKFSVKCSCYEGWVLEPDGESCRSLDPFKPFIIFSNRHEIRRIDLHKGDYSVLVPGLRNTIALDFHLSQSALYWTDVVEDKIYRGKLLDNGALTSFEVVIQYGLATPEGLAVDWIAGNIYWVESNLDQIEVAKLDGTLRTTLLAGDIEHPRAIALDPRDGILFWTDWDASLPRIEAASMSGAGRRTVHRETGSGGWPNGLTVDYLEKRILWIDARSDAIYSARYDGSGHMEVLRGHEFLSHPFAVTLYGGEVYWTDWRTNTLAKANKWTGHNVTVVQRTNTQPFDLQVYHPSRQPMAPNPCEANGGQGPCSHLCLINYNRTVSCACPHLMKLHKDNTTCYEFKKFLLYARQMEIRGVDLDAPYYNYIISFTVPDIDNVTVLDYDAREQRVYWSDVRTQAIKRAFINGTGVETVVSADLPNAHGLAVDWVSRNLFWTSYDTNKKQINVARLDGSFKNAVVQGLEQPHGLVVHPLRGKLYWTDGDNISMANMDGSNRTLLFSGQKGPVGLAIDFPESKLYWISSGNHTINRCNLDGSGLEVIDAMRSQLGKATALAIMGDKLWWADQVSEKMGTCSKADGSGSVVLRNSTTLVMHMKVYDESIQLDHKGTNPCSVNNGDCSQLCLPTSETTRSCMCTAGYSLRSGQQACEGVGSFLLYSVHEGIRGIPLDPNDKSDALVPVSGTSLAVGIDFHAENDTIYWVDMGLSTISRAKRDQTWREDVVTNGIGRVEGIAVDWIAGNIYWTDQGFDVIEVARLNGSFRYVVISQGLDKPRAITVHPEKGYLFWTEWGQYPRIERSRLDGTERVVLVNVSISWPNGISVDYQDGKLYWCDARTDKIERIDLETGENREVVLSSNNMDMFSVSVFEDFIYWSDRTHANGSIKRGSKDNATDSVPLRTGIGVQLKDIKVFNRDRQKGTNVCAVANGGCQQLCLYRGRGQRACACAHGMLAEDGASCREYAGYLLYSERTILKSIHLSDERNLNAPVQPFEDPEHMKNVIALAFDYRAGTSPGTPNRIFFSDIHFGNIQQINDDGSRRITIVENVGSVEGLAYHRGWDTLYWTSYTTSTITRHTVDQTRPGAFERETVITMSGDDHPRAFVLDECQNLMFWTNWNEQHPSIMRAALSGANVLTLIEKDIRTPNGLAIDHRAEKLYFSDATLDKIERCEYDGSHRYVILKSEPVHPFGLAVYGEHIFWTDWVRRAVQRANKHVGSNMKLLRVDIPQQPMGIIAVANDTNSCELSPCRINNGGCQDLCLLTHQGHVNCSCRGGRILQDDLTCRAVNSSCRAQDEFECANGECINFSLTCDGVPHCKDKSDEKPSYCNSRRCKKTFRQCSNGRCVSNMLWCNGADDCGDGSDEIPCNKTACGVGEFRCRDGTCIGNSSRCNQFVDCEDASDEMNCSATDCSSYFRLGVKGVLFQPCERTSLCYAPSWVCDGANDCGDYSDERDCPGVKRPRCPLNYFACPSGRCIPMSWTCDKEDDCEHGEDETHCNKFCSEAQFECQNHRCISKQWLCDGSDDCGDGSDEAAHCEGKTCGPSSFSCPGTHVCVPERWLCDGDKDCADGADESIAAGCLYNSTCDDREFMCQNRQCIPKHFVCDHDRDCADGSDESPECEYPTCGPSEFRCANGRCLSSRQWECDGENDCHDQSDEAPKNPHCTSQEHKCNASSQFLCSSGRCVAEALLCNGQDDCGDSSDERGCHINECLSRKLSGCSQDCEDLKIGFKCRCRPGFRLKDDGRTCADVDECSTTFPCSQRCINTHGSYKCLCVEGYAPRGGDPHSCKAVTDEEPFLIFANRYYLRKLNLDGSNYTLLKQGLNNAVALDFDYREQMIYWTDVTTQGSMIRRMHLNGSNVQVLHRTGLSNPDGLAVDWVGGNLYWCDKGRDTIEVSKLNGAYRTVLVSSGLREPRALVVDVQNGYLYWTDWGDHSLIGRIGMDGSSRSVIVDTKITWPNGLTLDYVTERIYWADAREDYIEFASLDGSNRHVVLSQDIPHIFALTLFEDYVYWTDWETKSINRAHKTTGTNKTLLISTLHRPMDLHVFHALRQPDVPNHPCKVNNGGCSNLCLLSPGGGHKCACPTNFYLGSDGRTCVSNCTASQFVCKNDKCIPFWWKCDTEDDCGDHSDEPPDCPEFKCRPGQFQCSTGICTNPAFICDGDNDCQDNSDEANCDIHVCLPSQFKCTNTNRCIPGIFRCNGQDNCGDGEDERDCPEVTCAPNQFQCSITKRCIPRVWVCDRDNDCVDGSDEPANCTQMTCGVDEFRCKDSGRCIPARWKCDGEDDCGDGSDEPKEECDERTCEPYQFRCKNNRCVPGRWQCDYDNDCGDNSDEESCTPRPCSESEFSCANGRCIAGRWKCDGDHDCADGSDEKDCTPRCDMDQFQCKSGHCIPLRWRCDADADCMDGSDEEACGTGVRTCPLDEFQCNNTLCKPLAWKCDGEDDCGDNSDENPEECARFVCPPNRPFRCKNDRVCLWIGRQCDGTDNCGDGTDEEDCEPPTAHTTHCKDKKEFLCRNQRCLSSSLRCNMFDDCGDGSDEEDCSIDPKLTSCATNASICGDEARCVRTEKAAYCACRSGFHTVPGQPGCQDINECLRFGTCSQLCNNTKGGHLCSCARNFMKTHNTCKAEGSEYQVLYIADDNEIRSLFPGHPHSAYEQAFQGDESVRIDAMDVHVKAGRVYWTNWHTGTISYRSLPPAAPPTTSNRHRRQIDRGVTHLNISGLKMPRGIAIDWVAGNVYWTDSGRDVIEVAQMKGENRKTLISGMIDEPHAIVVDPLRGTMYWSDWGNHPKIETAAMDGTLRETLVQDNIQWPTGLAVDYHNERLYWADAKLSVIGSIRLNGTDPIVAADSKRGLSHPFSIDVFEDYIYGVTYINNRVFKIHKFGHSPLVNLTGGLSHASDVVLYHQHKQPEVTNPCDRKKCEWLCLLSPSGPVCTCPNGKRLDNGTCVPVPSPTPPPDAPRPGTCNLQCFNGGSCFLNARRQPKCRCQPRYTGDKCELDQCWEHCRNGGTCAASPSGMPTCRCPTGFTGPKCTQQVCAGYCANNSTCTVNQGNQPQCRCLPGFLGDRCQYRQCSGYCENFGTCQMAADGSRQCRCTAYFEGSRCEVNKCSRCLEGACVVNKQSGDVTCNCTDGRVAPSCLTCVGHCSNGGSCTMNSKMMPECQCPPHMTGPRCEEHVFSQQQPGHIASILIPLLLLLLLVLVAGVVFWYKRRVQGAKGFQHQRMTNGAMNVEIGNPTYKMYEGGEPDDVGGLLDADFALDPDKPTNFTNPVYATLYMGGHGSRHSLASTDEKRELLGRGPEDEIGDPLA
UniProt P51665: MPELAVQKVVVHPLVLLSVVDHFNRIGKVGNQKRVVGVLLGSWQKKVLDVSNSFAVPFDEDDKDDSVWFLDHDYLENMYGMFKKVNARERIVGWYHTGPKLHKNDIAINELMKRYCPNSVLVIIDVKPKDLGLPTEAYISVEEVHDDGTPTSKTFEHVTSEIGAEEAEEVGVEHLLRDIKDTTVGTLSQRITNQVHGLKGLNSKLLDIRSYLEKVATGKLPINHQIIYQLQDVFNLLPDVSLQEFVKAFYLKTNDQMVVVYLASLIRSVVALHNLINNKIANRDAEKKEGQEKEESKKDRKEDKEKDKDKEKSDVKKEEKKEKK
UniProt Q9UNM6: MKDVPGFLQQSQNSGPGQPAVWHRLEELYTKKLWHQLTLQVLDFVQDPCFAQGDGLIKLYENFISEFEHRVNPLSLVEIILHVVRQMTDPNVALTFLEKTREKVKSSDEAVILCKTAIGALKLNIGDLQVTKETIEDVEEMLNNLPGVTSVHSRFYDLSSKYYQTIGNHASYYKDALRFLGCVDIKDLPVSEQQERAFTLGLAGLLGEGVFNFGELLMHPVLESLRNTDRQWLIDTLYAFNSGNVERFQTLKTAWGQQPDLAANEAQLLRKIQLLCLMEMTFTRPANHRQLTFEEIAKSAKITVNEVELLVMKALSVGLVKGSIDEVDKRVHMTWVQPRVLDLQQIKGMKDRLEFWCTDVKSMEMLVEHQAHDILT

In paper PMC10742089:

Biological target: mEGFP-iso6 (FMRP nuclear isoform iso6 fused to GFP) (human) (UniProt Q06787)
Test: affinity purification with mass spectrometry; stringent conditions: GFP-Trap on whole-cell lysate of U2OS stably expressing GFP-iso6 or GFP-iso1, half the number of cells of the first screen, 6 GFP-free U2OS controls, <=1% FDR; cells mock-treated or treated with aphidicolin (APH) for 24 h

Molecule	binding
APP (from UniProt P05067 18-770)	binds
C1QBP (from UniProt Q07021 74-282)	binds
HP1BP3 (from UniProt Q5SSJ5 1-553)	binds
ITM2B (from UniProt Q9Y287 1-266)	binds
LRP1 (from UniProt Q07954 20-4544)	binds
PCF11 (from UniProt O94913 1-1555)	binds
PI4KA (from UniProt P42356 1-2102)	binds
PSMC4 (from UniProt P43686 1-418)	binds
PSMC6 (from UniProt P62333 1-389)	binds
PSMD3 (from UniProt O43242 1-534)	binds
PSMD4 (from UniProt P55036 1-377)	binds
PSMD7 (from UniProt P51665 1-324)	binds
PSMD13 (from UniProt Q9UNM6 1-376)	binds
PSMD14 (from UniProt O00487 1-310)	binds
RFC2 (from UniProt P35250 1-354)	binds
YLPM1 (from UniProt P49750 1-2146)	binds
LPCAT3 (protein, UniProt Q6P1A2 1-487) MASSAEGDEGTVVALAGVLQSGFQELSLNKLATSLGASEQALRLIISIFLGYPFALFYRHYLFYKETYLIHLFHTFTGLSIAYFNFGNQLYHSLLCIVLQFLILRLMGRTITAVLTTFCFQMAYLLAGYYYTATGNYDIKWTMPHCVLTLKLIGLAVDYFDGGKDQNSLSSEQQKYAIRGVPSLLEVAGFSYFYGAFLVGPQFSMNHYMKLVQGELIDIPGKIPNSIIPALKRLSLGLFYLVGYTLLSPHITEDYLLTEDYDNHPFWFRCMYMLIWGKFVLYKYVTCWLVTEGVCILTGLGFNGFEEKGKAKWDACANMKVWLFETNPRFTGTIASFNINTNAWVARYIFKRLKFLGNKELSQGLSLLFLALWHGLHSGYLVCFQMEFLIVIVERQAARLIQESPTLSKLAAITVLQPFYYLVQQTIHWLFMGYSMTAFCLFTWDKWLKVYKSIYFLGHIFFLSLLFILPYIHKAMVPRKEKLKKME	binds
KIF22 (protein, UniProt Q14807 1-665) MAAGGSTQQRRREMAAASAAAISGAGRCRLSKIGATRRPPPARVRVAVRLRPFVDGTAGASDPPCVRGMDSCSLEIANWRNHQETLKYQFDAFYGERSTQQDIYAGSVQPILRHLLEGQNASVLAYGPTGAGKTHTMLGSPEQPGVIPRALMDLLQLTREEGAEGRPWALSVTMSYLEIYQEKVLDLLDPASGDLVIREDCRGNILIPGLSQKPISSFADFERHFLPASRNRTVGATRLNQRSSRSHAVLLVKVDQRERLAPFRQREGKLYLIDLAGSEDNRRTGNKGLRLKESGAINTSLFVLGKVVDALNQGLPRVPYRDSKLTRLLQDSLGGSAHSILIANIAPERRFYLDTVSALNFAARSKEVINRPFTNESLQPHALGPVKLSQKELLGPPEAKRARGPEEEEIGSPEPMAAPASASQKLSPLQKLSSMDPAMLERLLSLDRLLASQGSQGAPLLSTPKRERMVLMKTVEEKDLEIERLKTKQKELEAKMLAQKAEEKENHCPTMLRPLSHRTVTGAKPLKKAVVMPLQLIQEQAASPNAEIHILKNKGRKRKLESLDALEPEEKAEDCWELQISPELLAHGRQKILDLLNEGSARDLRSLQRIGPKKAQLIVGWRELHGPFSQVEDLERVEGITGKQMESFLKANILGLAAGQRCGAS	binds
PAK1IP1 (protein, UniProt Q9NWT1 1-392) MELVAGCYEQVLFGFAVHPEPEACGDHEQWTLVADFTHHAHTASLSAVAVNSRFVVTGSKDETIHIYDMKKKIEHGALVHHSGTITCLKFYGNRHLISGAEDGLICIWDAKKWECLKSIKAHKGQVTFLSIHPSGKLALSVGTDKTLRTWNLVEGRSAFIKNIKQNAHIVEWSPRGEQYVVIIQNKIDIYQLDTASISGTITNEKRISSVKFLSESVLAVAGDEEVIRFFDCDSLVCLCEFKAHENRVKDMFSFEIPEHHVIVSASSDGFIKMWKLKQDKKVPPSLLCEINTNARLTCLGVWLDKVADMKESLPPAAEPSPVSKEQSKIGKKEPGDTVHKEEKRSKPNTKKRGLTGDSKKATKESGLISTKKRKMVEMLEKKRKKKKIKTMQ	binds
NKTR (protein, UniProt P30414 1-1462) MGAQDRPQCHFDIEINREPVGRIMFQLFSDICPKTCKNFLCLCSGEKGLGKTTGKKLCYKGSTFHRVVKNFMIQGGDFSEGNGKGGESIYGGYFKDENFILKHDRAFLLSMANRGKHTNGSQFFITTKPAPHLDGVHVVFGLVISGFEVIEQIENLKTDAASRPYADVRVIDCGVLATKSIKDVFEKKRKKPTHSEGSDSSSNSSSSSESSSESELEHERSRRRKHKRRPKVKRSKKRRKEASSSEEPRNKHAMNPKGHSERSDTNEKRSVDSSAKREKPVVRPEEIPPVPENRFLLRRDMPVVTAEPEPKIPDVAPIVSDQKPSVSKSGRKIKGRGTIRYHTPPRSRSCSESDDDDSSETPPHWKEEMQRLRAYRPPSGEKWSKGDKLSDPCSSRWDERSLSQRSRSWSYNGYYSDLSTARHSGHHKKRRKEKKVKHKKKGKKQKHCRRHKQTKKRRILIPSDIESSKSSTRRMKSSCDRERSSRSSSLSSHHSSKRDWSKSDKDVQSSLTHSSRDSYRSKSHSQSYSRGSSRSRTASKSSSHSRSRSKSRSSSKSGHRKRASKSPRKTASQLSENKPVKTEPLRATMAQNENVVVQPVVAENIPVIPLSDSPPPSRWKPGQKPWKPSYERIQEMKAKTTHLLPIQSTYSLANIKETGSSSSYHKREKNSESDQSTYSKYSDRSSESSPRSRSRSSRSRSYSRSYTRSRSLASSHSRSRSPSSRSHSRNKYSDHSQCSRSSSYTSISSDDGRRAKRRLRSSGKKNSVSHKKHSSSSEKTLHSKYVKGRDRSSCVRKYSESRSSLDYSSDSEQSSVQATQSAQEKEKQGQMERTHNKQEKNRGEEKSKSERECPHSKKRTLKENLSDHLRNGSKPKRKNYAGSKWDSESNSERDVTKNSKNDSHPSSDKEEGEATSDSESEVSEIHIKVKPTTKSSTNTSLPDDNGAWKSSKQRTSTSDSEGSCSNSENNRGKPQKHKHGSKENLKREHTKKVKEKLKGKKDKKHKAPKRKQAFHWQPPLEFGEEEEEEIDDKQVTQESKEKKVSENNETIKDNILKTEKSSEEDLSGKHDTVTVSSDLDQFTKDDSKLSISPTALNTEENVACLQNIQHVEESVPNGVEDVLQTDDNMEICTPDRSSPAKVEETSPLGNARLDTPDINIVLKQDMATEHPQAEVVKQESSMSESKVLGEVGKQDSSSASLASAGESTGKKEVAEKSQINLIDKKWKPLQGVGNLAAPNAATSSAVEVKVLTTVPEMKPQGLRIEIKSKNKVRPGSLFDEVRKTARLNRRPRNQESSSDEQTPSRDDDSQSRSPSRSRSKSETKSRHRTRSVSYSHSRSRSRSSTSSYRSRSYSRSRSRGWYSRGRTRSRSSSYRSYKSHRTSSRSRSRSSSYDPHSRSRSYTYDSYYSRSRSRSRSQRSDSYHRGRSYNRRSRSCRSYGSDSESDRSYSHHRSPSESSRYS	binds
ADNP (protein, UniProt Q9H2P0 1-1102) MFQLPVNNLGSLRKARKTVKKILSDIGLEYCKEHIEDFKQFEPNDFYLKNTTWEDVGLWDPSLTKNQDYRTKPFCCSACPFSSKFFSAYKSHFRNVHSEDFENRILLNCPYCTFNADKKTLETHIKIFHAPNASAPSSSLSTFKDKNKNDGLKPKQADSVEQAVYYCKKCTYRDPLYEIVRKHIYREHFQHVAAPYIAKAGEKSLNGAVPLGSNAREESSIHCKRCLFMPKSYEALVQHVIEDHERIGYQVTAMIGHTNVVVPRSKPLMLIAPKPQDKKSMGLPPRIGSLASGNVRSLPSQQMVNRLSIPKPNLNSTGVNMMSSVHLQQNNYGVKSVGQGYSVGQSMRLGLGGNAPVSIPQQSQSVKQLLPSGNGRSYGLGSEQRSQAPARYSLQSANASSLSSGQLKSPSLSQSQASRVLGQSSSKPAAAATGPPPGNTSSTQKWKICTICNELFPENVYSVHFEKEHKAEKVPAVANYIMKIHNFTSKCLYCNRYLPTDTLLNHMLIHGLSCPYCRSTFNDVEKMAAHMRMVHIDEEMGPKTDSTLSFDLTLQQGSHTNIHLLVTTYNLRDAPAESVAYHAQNNPPVPPKPQPKVQEKADIPVKSSPQAAVPYKKDVGKTLCPLCFSILKGPISDALAHHLRERHQVIQTVHPVEKKLTYKCIHCLGVYTSNMTASTITLHLVHCRGVGKTQNGQDKTNAPSRLNQSPSLAPVKRTYEQMEFPLLKKRKLDDDSDSPSFFEEKPEEPVVLALDPKGHEDDSYEARKSFLTKYFNKQPYPTRREIEKLAASLWLWKSDIASHFSNKRKKCVRDCEKYKPGVLLGFNMKELNKVKHEMDFDAEWLFENHDEKDSRVNASKTADKKLNLGKEDDSSSDSFENLEEESNESGSPFDPVFEVEPKISNDNPEEHVLKVIPEDASESEEKLDQKEDGSKYETIHLTEEPTKLMHNASDSEVDQDDVVEWKDGASPSESGPGSQQVSDFEDNTCEMKPGTWSDESSQSEDARSSKPAAKKKATMQGDREQLKWKNSSYGKVEGFWSKDQSQWKNASENDERLSNPQIEWQNSTIDSEDGEQFDNMTDGVAEPMHGSLAGVKLSSQQA	binds
NIP7 (protein, UniProt Q9Y221 1-180) MRPLTEEETRVMFEKIAKYIGENLQLLVDRPDGTYCFRLHNDRVYYVSEKIMKLAANISGDKLVSLGTCFGKFTKTHKFRLHVTALDYLAPYAKYKVWIKPGAEQSFLYGNHVLKSGLGRITENTSQYQGVVVYSMADIPLGFGVAAKSTQDCRKVDPMAIVVFHQADIGEYVRHEETLT	binds
NOL7 (protein, UniProt Q9UMY1 1-257) MVQLRPRASRAPASAEAMVDEGQLASEEEEAEHGLLLGQPSSGAAAEPLEEDEEGDDEFDDEAPEELTFASAQAEAREEERRVRETVRRDKTLLKEKRKRREELFIEQKKRKLLPDTILEKLTTASQTNIKKSPGKVKEVNLQKKNEDCEKGNDSKKVKVQKVQSVSQNKSYLAVRLKDQDLRDSRQQAAQAFIHNSLYGPGTNRTTVNKFLSLANKRLPVKRAAVQFLNNAWGIQKKQNAKRFKRRWMVRKMKTKK	binds
PLBD2 (protein, UniProt Q8NHP8 42-589) IPAPGGRWARDGQVPPASRSRSVLLDVSAGQLLMVDGRHPDAVAWANLTNAIRETGWAFLELGTSGQYNDSLQAYAAGVVEAAVSEELIYMHWMNTVVNYCGPFEYEVGYCERLKSFLEANLEWMQEEMESNPDSPYWHQVRLTLLQLKGLEDSYEGRVSFPAGKFTIKPLGFLLLQLSGDLEDLELALNKTKIKPSLGSGSCSALIKLLPGQSDLLVAHNTWNNYQHMLRVIKKYWLQFREGPWGDYPLVPGNKLVFSSYPGTIFSCDDFYILGSGLVTLETTIGNKNPALWKYVRPRGCVLEWVRNIVANRLASDGATWADIFKRFNSGTYNNQWMIVDYKAFIPGGPSPGSRVLTILEQIPGMVVVADKTSELYQKTYWASYNIPSFETVFNASGLQALVAQYGDWFSYDGSPRAQIFRRNQSLVQDMDSMVRLMRYNDFLHDPLSLCKACNPQPNGENAISARSDLNPANGSYPFQALRQRSHGGIDVKVTSMSLARILSLLAASGPTWDQVPPFQWSTSPFSGLLHMGQPDLWKFAPVKVSWD	binds

No constants are given. Whether binding was seen depends on the method and setting. Binding seen in cells or lysates may run through a third protein. Here binding means that the protein was enriched with, or labelled near, the bait; the list need not be complete.
